Experimental data reported in patent US20080207449A1.
No constants are given. Whether binding was seen depends on the method and setting. Binding seen in cells or lysates may run through a third protein. Some results given as binding are weak or reduced against the parent protein; the word gives no strength. Sequences can lack the tags named with a protein. One block for each binder: values may come before it.

Amino acid sequences for entries named in this document (tags omitted). A change or cut given only in a name is not applied to a line headed by its entry. Chains listed by the source or under a name are the forms on record and can include a tag or linker.
HA-tagged wild-type AtE2Fb, in vitro translated (Q9FV71, form named): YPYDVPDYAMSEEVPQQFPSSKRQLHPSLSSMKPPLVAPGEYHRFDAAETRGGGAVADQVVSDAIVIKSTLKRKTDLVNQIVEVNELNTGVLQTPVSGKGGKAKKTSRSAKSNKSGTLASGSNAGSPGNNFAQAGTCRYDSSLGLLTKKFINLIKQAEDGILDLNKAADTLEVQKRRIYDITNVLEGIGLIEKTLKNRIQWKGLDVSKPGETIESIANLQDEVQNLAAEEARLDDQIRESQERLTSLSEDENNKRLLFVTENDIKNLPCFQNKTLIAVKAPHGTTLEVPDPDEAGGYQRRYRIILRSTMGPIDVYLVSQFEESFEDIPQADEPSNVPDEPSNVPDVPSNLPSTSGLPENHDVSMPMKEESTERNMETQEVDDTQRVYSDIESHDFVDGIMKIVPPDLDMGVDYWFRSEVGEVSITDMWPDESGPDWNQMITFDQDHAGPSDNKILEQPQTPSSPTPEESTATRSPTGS

Biological target: HA-tagged wild-type AtE2Fb, in vitro translated (Arabidopsis) (UniProt Q9FV71)
Experiment: co-immunoprecipitation (anti-c-myc) of in vitro co-translated tagged proteins, SDS-PAGE autoradiography

binding: binds
B1: c-myc-tagged AtDPb 1-263, in vitro translated (protein)
chain: EQKLISEEDLEQKLISEEDLMTTTGSNSNHNHHESNNNNNNPSTRSWGTAVSGQSVSTSGSMGSPSSRSEQTITVVTSTSDTTFQRLNNLDIQGDDAGSQGASGVKKKKRGQRAAGPDKTGRGLRQFSMKVCEKVESKGRTTYNEVADELVAEFALPNNDGTSPDQQQYDEKNIRRRVYDALNVLMAMDIISKDKKEIQWRGLPRTSLSDIEELKNERLSLRNRIEKKTAYSQELEEQYVGLQNLIQRNEHLYSSGNAPSGGVALPFILVQTRPHATVEVEI

binding: binds
B2: c-myc-tagged AtDPb 182-385, in vitro translated (protein)
chain: EQKLISEEDLEQKLISEEDLGLPRTSLSDIEELKNERLSLRNRIEKKTAYSQELEEQYVGLQNLIQRNEHLYSSGNAPSGGVALPFILVQTRPHATVEVEISEDMQLVHFDFNSTPFELHDDNFVLKTMKFCDQPPQQPNGRNNSQLVCHNFTPENPNKGPSTGPTPQLDMYETHLQSQQHQQHSQLQIIPMPETNNVTSSADTAPVKSPSLPGIMNSSMKPEN
